Experimental data taken from the supplement of paper PMC11006884.
The list shows a part of the results, in another mix than the full data.

Protein sequences, listed by entry. Tags and fused reporters are not part of them. Lines headed by an entry give the natural chain unless they say otherwise; changes in a name come on top.
UniProt Q9ULF5: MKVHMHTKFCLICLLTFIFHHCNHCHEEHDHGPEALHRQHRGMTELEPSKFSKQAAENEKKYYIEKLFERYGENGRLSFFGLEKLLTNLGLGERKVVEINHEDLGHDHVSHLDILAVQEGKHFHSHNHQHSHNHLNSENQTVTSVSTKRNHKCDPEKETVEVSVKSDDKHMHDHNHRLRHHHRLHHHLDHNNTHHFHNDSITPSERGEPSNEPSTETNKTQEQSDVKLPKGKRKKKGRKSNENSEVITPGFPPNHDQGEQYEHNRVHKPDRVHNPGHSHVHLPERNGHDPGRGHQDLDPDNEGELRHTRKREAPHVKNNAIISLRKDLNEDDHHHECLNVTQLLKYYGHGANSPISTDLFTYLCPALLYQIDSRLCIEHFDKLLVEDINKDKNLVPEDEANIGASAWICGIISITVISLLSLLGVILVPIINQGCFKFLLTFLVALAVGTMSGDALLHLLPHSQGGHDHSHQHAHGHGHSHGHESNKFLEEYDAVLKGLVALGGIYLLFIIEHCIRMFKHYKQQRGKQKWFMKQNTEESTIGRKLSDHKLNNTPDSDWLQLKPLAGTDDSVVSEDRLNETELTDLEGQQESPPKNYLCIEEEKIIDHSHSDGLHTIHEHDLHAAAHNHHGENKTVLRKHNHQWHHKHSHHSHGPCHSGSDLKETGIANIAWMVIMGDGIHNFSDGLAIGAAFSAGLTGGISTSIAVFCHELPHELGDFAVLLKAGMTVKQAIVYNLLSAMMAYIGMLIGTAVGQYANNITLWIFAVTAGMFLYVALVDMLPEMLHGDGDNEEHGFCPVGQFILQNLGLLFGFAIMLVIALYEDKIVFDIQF
UniProt Q9Y3C8: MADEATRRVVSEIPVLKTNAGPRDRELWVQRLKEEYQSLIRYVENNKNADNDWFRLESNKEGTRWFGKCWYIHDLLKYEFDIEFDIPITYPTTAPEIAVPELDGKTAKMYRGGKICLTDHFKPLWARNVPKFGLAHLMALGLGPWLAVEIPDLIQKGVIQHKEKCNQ
UniProt Q9Y490: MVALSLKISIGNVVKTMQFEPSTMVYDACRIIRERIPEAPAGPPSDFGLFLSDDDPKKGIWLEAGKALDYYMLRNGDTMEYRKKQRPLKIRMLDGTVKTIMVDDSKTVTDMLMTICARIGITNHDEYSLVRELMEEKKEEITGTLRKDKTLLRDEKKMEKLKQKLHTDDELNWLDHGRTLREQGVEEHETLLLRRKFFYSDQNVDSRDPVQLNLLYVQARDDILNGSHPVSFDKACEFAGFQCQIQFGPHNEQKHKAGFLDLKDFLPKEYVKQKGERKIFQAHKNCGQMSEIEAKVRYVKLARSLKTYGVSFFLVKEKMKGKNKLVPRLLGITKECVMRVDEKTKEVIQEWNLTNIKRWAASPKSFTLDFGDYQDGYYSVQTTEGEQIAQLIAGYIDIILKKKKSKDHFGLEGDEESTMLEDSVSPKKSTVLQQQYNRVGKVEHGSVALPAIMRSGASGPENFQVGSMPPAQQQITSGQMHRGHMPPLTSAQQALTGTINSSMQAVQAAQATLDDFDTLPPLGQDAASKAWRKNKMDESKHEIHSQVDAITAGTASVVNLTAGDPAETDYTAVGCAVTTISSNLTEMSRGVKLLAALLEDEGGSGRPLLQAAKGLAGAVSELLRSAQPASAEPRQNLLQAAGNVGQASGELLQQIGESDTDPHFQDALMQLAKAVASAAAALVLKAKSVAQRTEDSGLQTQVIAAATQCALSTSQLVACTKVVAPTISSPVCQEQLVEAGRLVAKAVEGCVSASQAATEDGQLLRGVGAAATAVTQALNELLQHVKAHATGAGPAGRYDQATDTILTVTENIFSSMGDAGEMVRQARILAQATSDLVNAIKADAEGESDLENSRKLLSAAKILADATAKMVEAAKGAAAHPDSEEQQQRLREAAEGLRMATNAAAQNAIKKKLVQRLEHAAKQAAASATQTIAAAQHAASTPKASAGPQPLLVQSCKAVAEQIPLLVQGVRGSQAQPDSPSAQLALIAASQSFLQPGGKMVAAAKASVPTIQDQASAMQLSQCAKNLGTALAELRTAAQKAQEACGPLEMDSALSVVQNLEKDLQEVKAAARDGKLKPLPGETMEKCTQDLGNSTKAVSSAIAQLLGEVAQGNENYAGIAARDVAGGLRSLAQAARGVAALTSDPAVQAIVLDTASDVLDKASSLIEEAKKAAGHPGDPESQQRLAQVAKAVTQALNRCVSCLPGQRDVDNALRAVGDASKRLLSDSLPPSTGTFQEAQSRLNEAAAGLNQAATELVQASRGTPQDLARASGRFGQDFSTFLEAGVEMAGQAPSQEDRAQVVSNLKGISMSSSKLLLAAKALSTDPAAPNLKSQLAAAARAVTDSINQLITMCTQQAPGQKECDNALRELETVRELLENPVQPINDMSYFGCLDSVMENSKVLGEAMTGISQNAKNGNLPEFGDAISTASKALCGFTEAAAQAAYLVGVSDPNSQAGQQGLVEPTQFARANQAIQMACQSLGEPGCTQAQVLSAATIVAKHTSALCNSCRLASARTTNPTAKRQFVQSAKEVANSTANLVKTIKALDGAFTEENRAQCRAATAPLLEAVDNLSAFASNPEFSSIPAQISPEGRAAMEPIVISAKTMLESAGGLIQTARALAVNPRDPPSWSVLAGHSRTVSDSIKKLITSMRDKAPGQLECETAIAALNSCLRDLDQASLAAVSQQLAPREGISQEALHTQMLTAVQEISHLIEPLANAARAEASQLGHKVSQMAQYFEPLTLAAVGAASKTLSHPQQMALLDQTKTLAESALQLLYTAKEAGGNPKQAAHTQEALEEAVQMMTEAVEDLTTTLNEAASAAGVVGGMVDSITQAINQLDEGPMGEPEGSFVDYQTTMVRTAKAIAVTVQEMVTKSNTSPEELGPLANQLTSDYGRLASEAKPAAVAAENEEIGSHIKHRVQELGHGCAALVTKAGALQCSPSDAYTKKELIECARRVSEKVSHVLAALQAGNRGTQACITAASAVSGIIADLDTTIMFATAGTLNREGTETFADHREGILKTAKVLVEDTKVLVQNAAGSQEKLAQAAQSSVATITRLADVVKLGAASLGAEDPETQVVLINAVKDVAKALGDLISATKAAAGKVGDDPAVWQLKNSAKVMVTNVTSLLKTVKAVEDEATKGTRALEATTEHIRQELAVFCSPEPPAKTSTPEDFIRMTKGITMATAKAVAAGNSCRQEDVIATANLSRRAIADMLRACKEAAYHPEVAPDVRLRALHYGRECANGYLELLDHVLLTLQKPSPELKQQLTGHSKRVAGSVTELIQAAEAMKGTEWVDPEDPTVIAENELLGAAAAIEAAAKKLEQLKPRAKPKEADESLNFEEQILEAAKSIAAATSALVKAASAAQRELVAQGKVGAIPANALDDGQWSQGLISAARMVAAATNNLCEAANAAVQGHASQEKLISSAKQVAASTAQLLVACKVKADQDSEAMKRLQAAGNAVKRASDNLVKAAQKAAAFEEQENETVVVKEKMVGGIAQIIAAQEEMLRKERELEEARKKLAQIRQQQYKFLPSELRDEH
UniProt Q9UL03, whole entry, looked up: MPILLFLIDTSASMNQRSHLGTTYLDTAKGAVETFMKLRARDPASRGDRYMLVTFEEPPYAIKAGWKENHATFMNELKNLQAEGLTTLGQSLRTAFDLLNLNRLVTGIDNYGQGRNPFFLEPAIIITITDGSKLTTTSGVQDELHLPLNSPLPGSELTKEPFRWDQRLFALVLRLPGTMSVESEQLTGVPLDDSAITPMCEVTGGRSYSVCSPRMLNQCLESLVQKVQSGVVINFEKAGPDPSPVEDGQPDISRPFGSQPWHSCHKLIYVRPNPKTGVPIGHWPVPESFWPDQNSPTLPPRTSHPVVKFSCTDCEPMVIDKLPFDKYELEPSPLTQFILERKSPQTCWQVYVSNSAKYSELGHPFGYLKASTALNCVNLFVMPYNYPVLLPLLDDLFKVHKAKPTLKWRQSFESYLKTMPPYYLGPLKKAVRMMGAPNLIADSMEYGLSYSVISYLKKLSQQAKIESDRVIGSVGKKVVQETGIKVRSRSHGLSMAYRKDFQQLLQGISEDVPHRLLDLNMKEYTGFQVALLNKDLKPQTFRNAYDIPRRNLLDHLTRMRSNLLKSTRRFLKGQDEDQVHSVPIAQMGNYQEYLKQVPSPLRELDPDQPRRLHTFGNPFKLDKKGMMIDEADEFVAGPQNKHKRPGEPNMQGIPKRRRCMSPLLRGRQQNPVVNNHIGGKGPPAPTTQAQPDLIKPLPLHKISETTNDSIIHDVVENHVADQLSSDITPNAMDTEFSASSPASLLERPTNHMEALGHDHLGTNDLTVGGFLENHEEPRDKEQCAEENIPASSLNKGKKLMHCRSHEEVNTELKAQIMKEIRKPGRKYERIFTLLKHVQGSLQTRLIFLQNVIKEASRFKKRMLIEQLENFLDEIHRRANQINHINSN
UniProt Q9Y2S7: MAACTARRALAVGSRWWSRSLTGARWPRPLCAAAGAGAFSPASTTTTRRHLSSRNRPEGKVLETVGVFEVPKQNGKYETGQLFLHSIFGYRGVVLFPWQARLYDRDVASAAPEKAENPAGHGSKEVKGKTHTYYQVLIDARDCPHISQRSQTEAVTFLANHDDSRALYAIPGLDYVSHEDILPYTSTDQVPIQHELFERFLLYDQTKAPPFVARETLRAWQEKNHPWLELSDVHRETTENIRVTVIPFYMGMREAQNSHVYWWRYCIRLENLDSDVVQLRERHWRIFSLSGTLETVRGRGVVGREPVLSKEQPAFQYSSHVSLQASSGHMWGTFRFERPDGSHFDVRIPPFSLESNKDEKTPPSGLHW
UniProt Q9Y2D4: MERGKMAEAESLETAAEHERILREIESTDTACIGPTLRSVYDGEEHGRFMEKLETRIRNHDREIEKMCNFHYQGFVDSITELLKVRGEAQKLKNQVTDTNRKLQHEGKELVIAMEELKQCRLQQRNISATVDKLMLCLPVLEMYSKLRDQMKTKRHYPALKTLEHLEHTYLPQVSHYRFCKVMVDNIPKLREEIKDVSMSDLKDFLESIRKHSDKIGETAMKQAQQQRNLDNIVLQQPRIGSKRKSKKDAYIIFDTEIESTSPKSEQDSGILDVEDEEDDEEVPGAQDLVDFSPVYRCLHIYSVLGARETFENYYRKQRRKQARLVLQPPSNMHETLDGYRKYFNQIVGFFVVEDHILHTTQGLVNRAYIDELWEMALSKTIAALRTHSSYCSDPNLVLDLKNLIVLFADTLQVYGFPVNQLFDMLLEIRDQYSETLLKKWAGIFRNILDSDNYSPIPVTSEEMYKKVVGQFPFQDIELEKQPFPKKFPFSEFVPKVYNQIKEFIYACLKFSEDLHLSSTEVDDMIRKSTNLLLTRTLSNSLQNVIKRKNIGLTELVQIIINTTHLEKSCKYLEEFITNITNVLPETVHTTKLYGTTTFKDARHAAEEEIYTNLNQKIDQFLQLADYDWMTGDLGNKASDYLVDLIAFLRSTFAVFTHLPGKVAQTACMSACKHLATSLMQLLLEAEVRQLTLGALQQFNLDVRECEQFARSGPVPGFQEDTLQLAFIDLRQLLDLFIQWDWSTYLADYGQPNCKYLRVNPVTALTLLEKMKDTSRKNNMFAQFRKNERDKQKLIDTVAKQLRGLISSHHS
UniProt Q9Y2W6: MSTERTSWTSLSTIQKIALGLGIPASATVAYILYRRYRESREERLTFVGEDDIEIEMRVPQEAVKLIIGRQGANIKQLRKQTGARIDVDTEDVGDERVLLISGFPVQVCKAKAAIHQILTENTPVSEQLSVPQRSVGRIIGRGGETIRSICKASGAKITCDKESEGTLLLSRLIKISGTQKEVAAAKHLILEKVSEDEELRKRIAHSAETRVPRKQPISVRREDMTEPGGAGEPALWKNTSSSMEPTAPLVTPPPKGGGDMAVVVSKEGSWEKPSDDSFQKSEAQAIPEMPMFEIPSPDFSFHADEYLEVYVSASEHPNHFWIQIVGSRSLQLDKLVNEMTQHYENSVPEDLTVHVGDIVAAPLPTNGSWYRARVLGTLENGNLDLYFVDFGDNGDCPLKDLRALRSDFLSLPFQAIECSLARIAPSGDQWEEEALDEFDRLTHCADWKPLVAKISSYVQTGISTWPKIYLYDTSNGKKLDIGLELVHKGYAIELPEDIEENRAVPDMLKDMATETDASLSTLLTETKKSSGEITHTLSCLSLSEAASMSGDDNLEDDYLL
UniProt Q9UNM6: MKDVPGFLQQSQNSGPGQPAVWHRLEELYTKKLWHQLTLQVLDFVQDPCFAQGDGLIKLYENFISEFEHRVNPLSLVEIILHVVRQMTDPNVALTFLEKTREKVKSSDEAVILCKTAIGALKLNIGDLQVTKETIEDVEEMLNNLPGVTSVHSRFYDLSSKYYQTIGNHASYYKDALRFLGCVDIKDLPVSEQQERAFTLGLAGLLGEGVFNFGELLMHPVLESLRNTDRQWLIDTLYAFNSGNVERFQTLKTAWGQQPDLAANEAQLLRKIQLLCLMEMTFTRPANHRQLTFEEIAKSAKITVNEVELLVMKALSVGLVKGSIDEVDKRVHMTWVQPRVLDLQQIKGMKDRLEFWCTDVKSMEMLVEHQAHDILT

What follows are targets tested with COC(=O)C#Cc1ccccc1 [methyl 3-phenylpropiolate] (assay: log2 ratio of iodoacetamide-alkyne labeling of the cysteine site, DMSO over compound (competition); higher = stronger covalent engagement of the cysteine by the compound, active = 1 or more). Details: 500 µM; treatment time 1 h; system: HEK293T cell lysate.
Summary of the method: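 HEK293T lysate (2 mg/mL) was incubated with electrophile (500 µM) or vehicle for 1 h at ambient temperature and then with iodoacetamide alkyne for 1 h. Labelled proteins were clicked to sCIP-TMT reagents, pooled, digested, enriched on streptavidin and measured by Orbitrap Eclipse LC-MS/MS with FAIMS, with FragPipe quantification. The per-cysteine log2 competition ratio is mean control-channel reporter intensity over mean compound-channel reporter intensity. Across three replicates with duplicate channels, cysteines quantified in only one replicate were excluded.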

log2 ratio of iodoacetamide-alkyne labeling, inactive:
SLC39A10 C153 (UniProt Q9ULF5) 0.358
USP24 C14 (UniProt Q9UPU5) 0.224
MACF1 C5049 (UniProt Q9UPN3) 0.311
DIS3 C213 (UniProt Q9Y2L1) 0.313
UFC1 C116 (UniProt Q9Y3C8) 0.115
TLN1 C1023 (UniProt Q9Y490) 0.0201
INTS6 C219 (UniProt Q9UL03) 0.124
UniProt Q9UI30_C100 0.727
POLDIP2 C143 (UniProt Q9Y2S7) 0.786
EXOC6B C32 (UniProt Q9Y2D4) 0.526
STRAP C305 (UniProt Q9Y3F4) 0.0837
TDRKH C419 (UniProt Q9Y2W6) 0.162
RASAL2 C360 (UniProt Q9UJF2) 0.112
PSMD13 C182 (UniProt Q9UNM6) 0.303
PSMD13 C357 (UniProt Q9UNM6) 0.191

A run of entries from further up, as a working copy:
log2 ratio of iodoacetamide-alkyne labeling, inactive:
INTS6 C219 (UniProt Q9UL03) 0.124
UniProt Q9UI30_C100 0.727
POLDIP2 C143 (UniProt Q9Y2S7) 0.786
EXOC6B C32 (UniProt Q9Y2D4) 0.526
